Data: PubChem BioAssay AID540256 (National Center for Advancing Translational Sciences (NCATS), 2011)
Among all 300,000 compounds or so, about 3,700 (1.2%) were called active. Inconclusive means that the source gave no clear call. Such entries were picked first, then a sample of the others. The call rests on the fitted dose curve; tested in HEK293 cells. Potencies of inconclusive entries are doubtful fits and often do not repeat.

Assay: qHTS for Inhibitors of binding or entry into cells for Lassa Virus; further: nearly all actives have a fitted effect of over 50% in size
Conditions: Lassa virus pseudotype entry inhibition, cell reporter; series mostly up to 37.9 µM
Potency means the concentration at half of the fitted maximal effect.

SMILES	Potency
CC(C1CC1)N(Cc1ccccc1)C(=S)Nc1ccccc1Cl (stereo not drawn)	inconclusive: 11.2 µM [inhibitor, partial curve, poor fit]
Cc1c(NC(=O)C(C)(C)Oc2ccc(Cl)cc2)cccc1-c1nc2ccccc2o1	inconclusive: 2.82 µM [inhibitor, full curve, poor fit]
COc1ccc(-c2nnc(SCC(=O)NC(C)c3ccccc3)o2)cc1OC (stereo not drawn)	inconclusive: 35.5 µM [inhibitor, single point]
Cc1c(CCOC(=O)c2ccc([N+](=O)[O-])cc2)sc[n+]1CC(=O)c1ccccc1	inactive
COc1ccc(CN(C)C(=O)c2cc(S(=O)(=O)N3CCCCCC3)ccc2OC)cc1OC	inconclusive: 22.4 µM [inhibitor, single point]
COc1ccc(C(=O)Nc2ccc(C)cn2)cc1S(=O)(=O)N1CCCc2ccccc21	inconclusive: 17.8 µM [inhibitor, partial curve, poor fit]
Cc1cc(NCCCCCCCNc2cc(C)nc3cc([N+](=O)[O-])ccc23)c2ccc([N+](=O)[O-])cc2n1	inconclusive: 3.55 µM [inhibitor, partial curve, poor fit]
CCOC(=O)c1c(NC(=O)c2cc(=O)c3cc(C)cc(C)c3o2)sc(C)c1C	inactive
Cc1cc(=O)[nH]c(SCCOc2ccc(OC(C)C)cc2)n1	inconclusive: 29.1 µM [inhibitor, single point]
CCOc1ccccc1NC(=O)C(=O)/C=C(\O)c1cc(OC)ccc1OC	inconclusive: 29.1 µM [inhibitor, single point]
COc1ccc(OC)c(C2=NNC(=NCc3ccc4c(c3)OCO4)SC2)c1	inconclusive: 5.62 µM [inhibitor, partial curve, poor fit]
CC(=O)Nc1ccc(S(=O)(=O)N2CCN=C2SCc2ccc([N+](=O)[O-])cc2)cc1	inconclusive: 15.8 µM [inhibitor, partial curve, poor fit]
Cc1ccc(-n2ncc3c(N4CCN(c5ccccc5)CC4)ncnc32)c(C)c1	inconclusive: 13 µM [inhibitor, partial curve, poor fit]
COc1ccccc1CC(=O)O/N=C(\N)c1cccc([N+](=O)[O-])c1	inconclusive: 15.8 µM [inhibitor, single point]
CCCCn1c(N)c(N(CC(C)C)C(=O)c2oc3c(Cl)cccc3c2C)c(=O)[nH]c1=O	inactive
COCCn1c(-c2ccc(OC(F)(F)C(F)C(F)(F)F)cc2)nc2c1c(=O)[nH]c(=O)n2CC(C)C (stereo not drawn)	active: 2.82 µM
COc1cc2[nH]c(=S)nc(NC3CCCCCC3)c2cc1OC	inactive
CCOCCCNC(=O)C(c1ccccc1)N1Cc2ccccc2C1=O (stereo not drawn)	inactive
Cc1cc(CNCCN(C)C)c(C)n1-c1cc(S(=O)(=O)N2CCOCC2)ccc1N1CCCC1	inconclusive: 12.6 µM [inhibitor, single point]
O=C(Nc1ccc(F)cc1)c1cc(S(=O)(=O)Nc2ccc(F)cc2)cs1	inconclusive: 31.6 µM [inhibitor, single point]
CC(C)COc1ccc(C(=O)OCCN2CCCCC2)cc1	inconclusive: 12.6 µM [activator, single point]
C/C(=N\NC(=S)Nc1ccccc1C)C1Cc2ccccc2C(=O)O1 (stereo not drawn)	inactive

3 entries from above, ordered by heavy-atom count, high to low.
SMILES	Potency
CCCCn1c(N)c(N(CC(C)C)C(=O)c2oc3c(Cl)cccc3c2C)c(=O)[nH]c1=O	inactive
CCOc1ccccc1NC(=O)C(=O)/C=C(\O)c1cc(OC)ccc1OC	inconclusive: 29.1 µM [inhibitor, single point]
COc1ccccc1CC(=O)O/N=C(\N)c1cccc([N+](=O)[O-])c1	inconclusive: 15.8 µM [inhibitor, single point]

Following part

SMILES	Potency
CCOC(=O)c1c(NC(=O)CSc2nnnn2C)sc(C)c1-c1ccc(C)cc1	inconclusive: 23.1 µM [inhibitor, single point]
COc1cccc(C(=O)NCCC2=CCCCC2)c1	inactive
CN(C)S(=O)(=O)c1ccc(C(=O)Nc2ccc3ncccc3c2)cc1	inactive
CC(=O)C1=C(c2ccccc2)NC(=S)NC1c1cc(Cl)c(OC(C)C)c(Cl)c1 (stereo not drawn)	inconclusive: 35.5 µM [inhibitor, single point]
COc1cc(C(c2c(C)[nH][nH]c2=O)c2c(C)[nH][nH]c2=O)ccc1OC(=O)c1cccc([N+](=O)[O-])c1	inactive
Nc1nonc1-n1nnc(C(=O)N/N=C/c2cccc(F)c2)c1-c1ccccc1	inactive
CC(C)COc1ccc(C(=O)Nc2sc3c(c2C(=O)O)CC(C)(C)OC3)cc1	inconclusive: 2.51 µM [inhibitor, partial curve, poor fit]
O=S(=O)(c1ccc(Cl)cc1)c1nc(-c2ccco2)oc1SCc1ccccc1F	inconclusive: 5.62 µM [inhibitor, single point]
CN(C(=O)CSc1nnc(COc2ccccc2)o1)c1ccccc1	inactive
CCOc1ccc(OCC)c(NC(=O)c2cc3ccccn3n2)c1	inconclusive: 10 µM [activator, partial curve, poor fit]
CCC(=O)N1CCc2cc(S(=O)(=O)NC(Cc3ccccc3)C(=O)Nc3ccccc3C)ccc21 (stereo not drawn)	inactive
CN1CC=C2C(C#N)=C(N)C(C#N)(C#N)C(c3cccc(Cl)c3Cl)C2C1 (stereo not drawn)	inconclusive: 0.891 µM [activator, partial curve, poor fit]
CCc1cccc2c(=O)c(C(=O)NCCN3CCOCC3)c[nH]c12	inactive
O=C1C2CCCN2C(=O)N1CCCCN1CCN(c2ccc(F)cc2)CC1 (stereo not drawn)	inconclusive: 3.98 µM [activator, single point]
CCCOc1ccc(C(=O)NCC(c2ccco2)N(C)C)cc1 (stereo not drawn)	inactive
O=C(Nc1cccn(Cc2ccccc2)c1=O)NC1CCCCC1	inconclusive: 8.2 µM [inhibitor, partial curve, poor fit]
CCC(=O)c1ccc(OCC(O)CN2CCN(c3cccc(C(F)(F)F)c3)CC2)cc1 (stereo not drawn)	inconclusive: 0.282 µM [inhibitor, full curve, poor fit]
COc1ccc(Cl)cc1NC(=O)N1CCN(Cc2cc(=O)n3nc(-c4ccccc4)sc3n2)CC1	inactive
COCCNc1c(-c2cc3ccc(C)c(C)c3[nH]c2=O)nc2ccccn12	active: 5.01 µM
O=S(=O)(c1ccccc1)N1CCC(n2nnc3cc(F)ccc32)CC1	inactive
CC1=C(C(=O)OCc2ccc3c(c2)OCO3)C(c2ccc(F)cc2)NC(=O)N1 (stereo not drawn)	inconclusive: 5.17 µM [inhibitor, full curve, poor fit]
